Measured values taken from publication PMC4310350 (Drug Design, Development and Therapy, 2015).
“Also recorded” adds a separate entry of the source.

Experiments:
OAT3 [1] = molecular target: T1, OAT3 (Homo sapiens, UniProt Q8TCC7); conditions: 10 μM catalposide, HEK293-OAT3
T1 sequence (Q8TCC7 1-542): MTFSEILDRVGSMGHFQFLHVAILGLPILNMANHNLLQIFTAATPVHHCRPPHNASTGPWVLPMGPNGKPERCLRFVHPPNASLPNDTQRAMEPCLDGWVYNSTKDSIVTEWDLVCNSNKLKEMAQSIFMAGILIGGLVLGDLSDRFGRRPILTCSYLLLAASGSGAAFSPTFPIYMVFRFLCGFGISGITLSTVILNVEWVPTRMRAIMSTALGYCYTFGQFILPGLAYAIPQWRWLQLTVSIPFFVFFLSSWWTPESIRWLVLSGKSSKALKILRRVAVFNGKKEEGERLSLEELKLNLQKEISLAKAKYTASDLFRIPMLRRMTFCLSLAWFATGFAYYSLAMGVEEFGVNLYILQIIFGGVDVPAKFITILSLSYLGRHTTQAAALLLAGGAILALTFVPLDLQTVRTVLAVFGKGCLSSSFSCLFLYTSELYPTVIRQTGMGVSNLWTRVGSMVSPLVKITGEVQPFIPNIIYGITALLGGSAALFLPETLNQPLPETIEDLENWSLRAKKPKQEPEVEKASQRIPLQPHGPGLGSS

OAT3 [2] = molecular target: T1, OAT3; conditions: read-out: IC50 as inhibitor of OAT3; cited from earlier work
OAT3 [3] = molecular target: T1, OAT3; experiment: in vitro; conditions: HEK293 cells transiently expressing OAT3, probe catalposide 10 μM

inhibition at 10 min, 100 μM (OAT3 [3]): 98.3%
SMILES: NS(=O)(=O)c1cc(C(=O)O)c(NCc2ccco2)cc1Cl [furosemide]
Effect on OAT3-mediated catalposide uptake (words) (OAT3 [1]): decreased to basal levels; also recorded: inhibited OAT3-mediated catalposide transport in a concentration-dependent manner
IC50 (OAT3 [2]): 51.1 ± 10.5 µM
